Experimental data: the supplement of paper PMC10849652
The other results are listed elsewhere or left out.

Amino acid sequences for entries named in this document (tags omitted). A change or cut given only in a name is not applied to a line headed by its entry.
UniProt P62380: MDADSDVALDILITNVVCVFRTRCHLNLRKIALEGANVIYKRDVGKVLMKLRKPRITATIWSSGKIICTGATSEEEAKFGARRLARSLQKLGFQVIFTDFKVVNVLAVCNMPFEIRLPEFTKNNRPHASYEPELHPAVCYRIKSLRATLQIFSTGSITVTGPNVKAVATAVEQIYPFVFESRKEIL
UniProt Q9NUY8: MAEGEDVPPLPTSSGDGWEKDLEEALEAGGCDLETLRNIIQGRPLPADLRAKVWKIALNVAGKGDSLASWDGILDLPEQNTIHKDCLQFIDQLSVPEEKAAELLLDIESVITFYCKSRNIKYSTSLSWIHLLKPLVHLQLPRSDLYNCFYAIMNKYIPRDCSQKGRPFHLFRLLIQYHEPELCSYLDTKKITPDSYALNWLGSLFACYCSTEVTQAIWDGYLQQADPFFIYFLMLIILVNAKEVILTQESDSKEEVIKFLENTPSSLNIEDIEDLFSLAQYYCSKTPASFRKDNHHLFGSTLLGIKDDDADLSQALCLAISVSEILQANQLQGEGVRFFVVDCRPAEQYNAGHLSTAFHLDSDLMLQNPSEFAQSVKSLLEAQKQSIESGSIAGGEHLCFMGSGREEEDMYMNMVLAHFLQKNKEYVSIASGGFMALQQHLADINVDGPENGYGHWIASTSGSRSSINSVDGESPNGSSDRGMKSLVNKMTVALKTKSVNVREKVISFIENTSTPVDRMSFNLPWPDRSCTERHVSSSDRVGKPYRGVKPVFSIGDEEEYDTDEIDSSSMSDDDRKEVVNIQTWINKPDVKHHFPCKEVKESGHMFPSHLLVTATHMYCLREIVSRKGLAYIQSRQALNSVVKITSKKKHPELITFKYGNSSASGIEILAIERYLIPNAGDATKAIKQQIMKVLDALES
UniProt Q96MV1: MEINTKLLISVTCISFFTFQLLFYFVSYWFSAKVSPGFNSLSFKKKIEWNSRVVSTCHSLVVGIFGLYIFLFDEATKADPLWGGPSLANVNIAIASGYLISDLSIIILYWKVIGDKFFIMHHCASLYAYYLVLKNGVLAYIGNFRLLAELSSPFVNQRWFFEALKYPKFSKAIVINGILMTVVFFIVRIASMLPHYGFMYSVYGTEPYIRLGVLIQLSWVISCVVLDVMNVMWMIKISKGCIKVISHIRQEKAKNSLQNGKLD
UniProt Q9NYB0: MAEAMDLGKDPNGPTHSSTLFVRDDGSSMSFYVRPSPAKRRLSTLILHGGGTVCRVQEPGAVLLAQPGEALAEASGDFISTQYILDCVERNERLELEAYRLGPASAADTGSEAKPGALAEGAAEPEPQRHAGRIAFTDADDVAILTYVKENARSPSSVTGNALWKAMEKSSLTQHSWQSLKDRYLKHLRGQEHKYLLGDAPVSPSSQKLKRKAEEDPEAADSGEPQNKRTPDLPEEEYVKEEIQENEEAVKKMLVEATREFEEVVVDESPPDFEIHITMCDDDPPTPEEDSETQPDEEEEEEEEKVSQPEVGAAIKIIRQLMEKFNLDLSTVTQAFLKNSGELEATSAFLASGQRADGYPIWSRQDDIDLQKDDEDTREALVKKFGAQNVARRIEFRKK
UniProt Q5JTD0: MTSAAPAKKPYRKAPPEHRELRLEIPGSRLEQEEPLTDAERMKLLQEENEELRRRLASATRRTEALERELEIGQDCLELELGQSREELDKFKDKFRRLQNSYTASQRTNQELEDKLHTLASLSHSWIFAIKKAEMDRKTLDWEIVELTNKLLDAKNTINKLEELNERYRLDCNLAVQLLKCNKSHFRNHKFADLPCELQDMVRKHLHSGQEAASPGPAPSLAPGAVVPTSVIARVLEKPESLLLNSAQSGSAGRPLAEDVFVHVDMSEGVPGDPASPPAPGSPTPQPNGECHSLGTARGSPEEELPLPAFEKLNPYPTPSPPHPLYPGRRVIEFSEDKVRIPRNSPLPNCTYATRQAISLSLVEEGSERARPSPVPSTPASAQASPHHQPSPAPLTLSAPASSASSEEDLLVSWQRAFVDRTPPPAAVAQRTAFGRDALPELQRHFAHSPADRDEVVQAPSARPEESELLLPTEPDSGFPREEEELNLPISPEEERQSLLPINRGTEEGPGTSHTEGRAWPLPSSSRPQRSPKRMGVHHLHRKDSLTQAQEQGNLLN
UniProt Q9BZK7: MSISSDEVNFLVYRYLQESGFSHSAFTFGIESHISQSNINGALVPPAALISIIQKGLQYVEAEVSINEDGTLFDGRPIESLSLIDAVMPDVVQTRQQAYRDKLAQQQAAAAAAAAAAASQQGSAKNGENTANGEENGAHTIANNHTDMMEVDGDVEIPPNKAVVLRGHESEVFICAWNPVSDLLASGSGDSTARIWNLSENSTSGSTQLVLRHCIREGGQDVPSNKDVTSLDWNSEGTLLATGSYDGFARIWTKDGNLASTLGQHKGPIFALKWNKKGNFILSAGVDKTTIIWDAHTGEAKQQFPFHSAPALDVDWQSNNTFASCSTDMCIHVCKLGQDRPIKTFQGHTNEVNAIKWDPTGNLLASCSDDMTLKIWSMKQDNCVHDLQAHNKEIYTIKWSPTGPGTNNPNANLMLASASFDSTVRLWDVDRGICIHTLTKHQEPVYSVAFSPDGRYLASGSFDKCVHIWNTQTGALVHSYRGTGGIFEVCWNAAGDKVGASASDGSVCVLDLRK
UniProt Q3ZCQ8: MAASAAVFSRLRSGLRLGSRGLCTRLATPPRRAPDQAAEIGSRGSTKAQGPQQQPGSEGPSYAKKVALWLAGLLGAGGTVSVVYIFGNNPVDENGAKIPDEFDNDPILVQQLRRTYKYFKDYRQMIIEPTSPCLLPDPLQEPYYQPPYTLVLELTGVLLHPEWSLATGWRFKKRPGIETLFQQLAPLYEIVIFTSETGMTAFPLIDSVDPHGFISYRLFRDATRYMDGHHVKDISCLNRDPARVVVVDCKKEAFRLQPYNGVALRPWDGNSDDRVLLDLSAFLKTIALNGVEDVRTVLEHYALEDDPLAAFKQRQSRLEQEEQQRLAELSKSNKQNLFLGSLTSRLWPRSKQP
UniProt A6NFQ2: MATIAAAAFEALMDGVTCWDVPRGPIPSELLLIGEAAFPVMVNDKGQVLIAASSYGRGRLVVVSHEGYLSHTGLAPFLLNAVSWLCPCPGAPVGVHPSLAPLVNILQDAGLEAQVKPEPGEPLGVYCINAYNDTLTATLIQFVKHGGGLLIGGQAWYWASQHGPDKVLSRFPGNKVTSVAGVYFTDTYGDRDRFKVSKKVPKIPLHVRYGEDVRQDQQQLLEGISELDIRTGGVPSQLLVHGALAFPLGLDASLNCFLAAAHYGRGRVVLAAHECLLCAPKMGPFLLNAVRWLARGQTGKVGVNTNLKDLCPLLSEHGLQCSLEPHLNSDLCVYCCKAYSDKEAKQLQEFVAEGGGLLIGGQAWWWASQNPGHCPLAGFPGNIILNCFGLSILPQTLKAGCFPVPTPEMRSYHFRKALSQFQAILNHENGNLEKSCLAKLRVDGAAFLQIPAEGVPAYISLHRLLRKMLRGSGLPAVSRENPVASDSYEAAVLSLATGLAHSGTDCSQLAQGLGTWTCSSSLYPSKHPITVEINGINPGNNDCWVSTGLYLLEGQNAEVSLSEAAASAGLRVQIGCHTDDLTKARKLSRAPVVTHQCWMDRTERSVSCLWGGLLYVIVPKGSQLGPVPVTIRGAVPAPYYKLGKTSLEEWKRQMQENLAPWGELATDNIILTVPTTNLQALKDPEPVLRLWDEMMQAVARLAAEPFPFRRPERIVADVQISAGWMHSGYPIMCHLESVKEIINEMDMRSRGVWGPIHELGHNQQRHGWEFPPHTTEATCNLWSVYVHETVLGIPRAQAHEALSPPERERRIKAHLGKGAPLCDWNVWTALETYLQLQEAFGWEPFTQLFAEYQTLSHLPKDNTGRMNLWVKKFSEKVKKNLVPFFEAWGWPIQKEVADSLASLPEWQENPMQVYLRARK
UniProt Q9H5Q4: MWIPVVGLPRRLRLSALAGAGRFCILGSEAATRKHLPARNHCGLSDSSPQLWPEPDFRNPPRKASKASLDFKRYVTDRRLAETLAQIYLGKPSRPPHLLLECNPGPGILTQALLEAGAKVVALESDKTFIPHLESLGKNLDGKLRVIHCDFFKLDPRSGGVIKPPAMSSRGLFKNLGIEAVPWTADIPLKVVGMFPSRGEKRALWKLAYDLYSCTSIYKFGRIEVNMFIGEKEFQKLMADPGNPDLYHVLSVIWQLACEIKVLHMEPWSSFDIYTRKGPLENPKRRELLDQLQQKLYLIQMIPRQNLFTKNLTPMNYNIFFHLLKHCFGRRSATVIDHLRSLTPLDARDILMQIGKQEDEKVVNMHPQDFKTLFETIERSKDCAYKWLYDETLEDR
UniProt Q92609: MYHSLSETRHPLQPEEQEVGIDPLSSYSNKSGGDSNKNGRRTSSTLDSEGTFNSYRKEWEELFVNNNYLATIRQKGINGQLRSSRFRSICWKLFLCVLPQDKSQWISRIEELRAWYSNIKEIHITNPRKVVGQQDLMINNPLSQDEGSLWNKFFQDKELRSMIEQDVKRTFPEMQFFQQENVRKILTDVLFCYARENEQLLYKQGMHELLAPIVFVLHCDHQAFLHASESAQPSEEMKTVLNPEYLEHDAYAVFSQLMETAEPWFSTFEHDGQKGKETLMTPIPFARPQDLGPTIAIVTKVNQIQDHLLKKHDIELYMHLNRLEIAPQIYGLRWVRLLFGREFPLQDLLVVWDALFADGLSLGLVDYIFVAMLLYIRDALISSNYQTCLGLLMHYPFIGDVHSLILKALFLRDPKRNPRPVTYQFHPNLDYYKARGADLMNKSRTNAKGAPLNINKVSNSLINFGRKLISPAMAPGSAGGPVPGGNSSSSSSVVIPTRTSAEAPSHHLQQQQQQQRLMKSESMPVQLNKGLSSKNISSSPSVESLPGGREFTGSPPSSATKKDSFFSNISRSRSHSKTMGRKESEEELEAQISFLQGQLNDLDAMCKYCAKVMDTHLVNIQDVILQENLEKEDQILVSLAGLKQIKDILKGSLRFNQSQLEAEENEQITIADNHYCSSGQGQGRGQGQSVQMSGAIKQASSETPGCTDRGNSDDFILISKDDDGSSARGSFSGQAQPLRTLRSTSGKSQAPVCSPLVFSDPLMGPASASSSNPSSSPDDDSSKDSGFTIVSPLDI
UniProt Q13488, whole entry, looked up: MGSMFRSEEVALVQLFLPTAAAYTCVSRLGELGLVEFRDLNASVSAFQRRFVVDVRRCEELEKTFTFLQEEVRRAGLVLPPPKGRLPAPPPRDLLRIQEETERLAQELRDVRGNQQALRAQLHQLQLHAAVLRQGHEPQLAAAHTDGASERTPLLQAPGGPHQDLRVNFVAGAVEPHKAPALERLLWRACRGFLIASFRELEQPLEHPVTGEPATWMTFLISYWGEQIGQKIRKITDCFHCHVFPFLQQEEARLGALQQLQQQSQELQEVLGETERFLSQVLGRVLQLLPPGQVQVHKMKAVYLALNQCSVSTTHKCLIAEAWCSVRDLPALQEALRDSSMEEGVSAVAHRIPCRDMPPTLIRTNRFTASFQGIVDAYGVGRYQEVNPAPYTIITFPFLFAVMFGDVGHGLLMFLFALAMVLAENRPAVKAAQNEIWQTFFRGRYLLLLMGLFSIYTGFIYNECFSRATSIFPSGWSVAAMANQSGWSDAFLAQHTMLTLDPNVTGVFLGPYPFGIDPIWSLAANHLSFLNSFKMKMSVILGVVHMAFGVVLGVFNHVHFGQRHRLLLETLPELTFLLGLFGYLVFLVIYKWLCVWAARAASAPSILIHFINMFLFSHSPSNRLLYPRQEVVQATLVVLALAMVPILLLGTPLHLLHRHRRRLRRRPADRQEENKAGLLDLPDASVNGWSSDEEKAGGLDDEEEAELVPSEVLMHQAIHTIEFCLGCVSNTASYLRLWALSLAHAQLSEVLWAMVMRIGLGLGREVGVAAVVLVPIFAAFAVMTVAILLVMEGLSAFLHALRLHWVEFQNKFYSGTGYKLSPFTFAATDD
UniProt P62072: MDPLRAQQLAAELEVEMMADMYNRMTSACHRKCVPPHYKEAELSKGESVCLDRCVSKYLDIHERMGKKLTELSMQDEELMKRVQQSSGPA
UniProt P36897: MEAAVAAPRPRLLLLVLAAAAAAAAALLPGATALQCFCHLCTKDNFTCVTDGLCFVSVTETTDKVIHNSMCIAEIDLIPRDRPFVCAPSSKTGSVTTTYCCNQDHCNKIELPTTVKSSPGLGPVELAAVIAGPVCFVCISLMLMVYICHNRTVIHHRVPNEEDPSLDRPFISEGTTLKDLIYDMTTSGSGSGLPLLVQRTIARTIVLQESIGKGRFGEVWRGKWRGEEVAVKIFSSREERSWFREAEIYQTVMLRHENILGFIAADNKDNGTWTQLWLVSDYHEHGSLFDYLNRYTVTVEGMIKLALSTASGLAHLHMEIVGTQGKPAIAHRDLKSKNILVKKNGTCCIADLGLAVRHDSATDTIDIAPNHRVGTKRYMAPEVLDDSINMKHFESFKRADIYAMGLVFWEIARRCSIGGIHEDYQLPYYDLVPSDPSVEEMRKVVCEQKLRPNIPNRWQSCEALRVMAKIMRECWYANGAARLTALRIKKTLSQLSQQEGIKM

Legend:
Assay in all cases: log2 fold change, soluble protein after heating vs DMSO (PISA); higher = thermal stabilisation; K562 cells, 10 uM, 30 min; active = over 0.2 and 3.5 SD of the protein, either way, in both replicates (recomputed)
[1] = compound: CC[C@@H]1C(=O)N(C)c2cnc(Nc3ccc(C(=O)NC4CCN(C)CC4)cc3OC)nc2N1C1CCCC1
Method in brief: (§1)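 K562 cells at 2×10^6 cells/mL were exposed to 10 μM compound for 30 min, then aliquots were heated for 3 min across 48°C-58°C, pooled, and extracted in PBS containing 0.5% NP-40 at 4°C. The supernatant after 21,000xg for 90 min was taken as soluble protein and measured by TMTpro 16plex LC-MS/MS with channel sums equalised. Thermal stability is reported relative to control samples, with values from duplicates. Fold changes are given on a log2 scale.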

volasertib = compound: CC[C@@H]1C(=O)N(C)c2cnc(Nc3ccc(C(=O)N[C@H]4CC[C@H](N5CCN(CC6CC6)CC5)CC4)cc3OC)nc2N1C(C)C [volasertib]
Method in brief: as §1

[2] = compound: CC[C@H](C)N1C=C(C2=C(C=C(C=C21)C3=CN=C(C=C3)N4CCNCC4)C(=O)NCC5=C(C=C(NC5=O)C)C)C
Method in brief: as §1

epoxomicin = compound: CC[C@H](C)[C@@H](C(=O)N[C@@H]([C@@H](C)O)C(=O)N[C@@H](CC(C)C)C(=O)[C@]1(CO1)C)NC(=O)[C@H]([C@@H](C)CC)N(C)C(=O)C [epoxomicin]
Method in brief: as §1

[3] = compound: CCn1c(C(=O)N(C2CC2)C2CC2)cc2c3c(ncn3C)c(Nc3cc(C)n(C)n3)nc21
Method in brief: as §1

[4] = compound: CCn1cc(-c2ccnc3[nH]c(-c4cccc(CN(C)C)c4)cc23)c(-c2ccc(NC(=O)N(C)C)cc2)n1
Method in brief: as §1

[5] = compound: CN(C)CC(=O)Nc1ccc2[nH]c(=O)c3ccccc3c2c1
Method in brief: as §1

rosiglitazone = compound: CN(CCOC1=CC=C(C=C1)C[C@H]2C(=O)NC(=O)S2)C3=CC=CC=N3 (racemic) [rosiglitazone]
Method in brief: as §1

[6] = compound: CN1C2=C(C3=C1C(=O)N(N=C3)CC4=CC(=CC=C4)N)SC(=C2)S(=O)C
Method in brief: as §1

[7] = compound: CN1CCC(CNc2ccc3ncc(-c4cccc(OC(F)(F)F)c4)n3n2)CC1
Method in brief: as §1

| Target | log2 fold change [1] | log2 fold change (volasertib) | log2 fold change [2] | log2 fold change (epoxomicin) | log2 fold change [3] | log2 fold change [4] | log2 fold change [5] | log2 fold change (rosiglitazone) | log2 fold change [6] | log2 fold change [7] |
| --- | --- | --- | --- | --- | --- | --- | --- | --- | --- | --- |
| THEM6 (UniProt Q8WUY1) | inactive: -0.035 | inactive: 0.022 | inactive: -0.053 | inactive: -0.03 | inactive: 0.071 | inactive: 0.037 | inactive: 0.062 | inactive: 0.003 | inactive: -0.058 | inactive: -0.024 |
| THOP1 (UniProt P52888) | inactive: 0.007 | inactive: 0.035 | inactive: -0.022 | inactive: -0.027 | inactive: 0.007 | inactive: -0.009 | inactive: -0.006 | inactive: 0.01 | inactive: -0.058 | inactive: -0.039 |
| TBCC (UniProt Q15814) | inactive: -0.038 | inactive: -0.034 | inactive: 0.033 | inactive: 0.049 | inactive: -0.012 | inactive: -0.035 | inactive: -0.022 | inactive: 0.035 | inactive: -0.042 | inactive: -0.002 |
| TBCE (UniProt Q15813) | inactive: -0.005 | inactive: -0.254 | inactive: 0.133 | inactive: -0.062 | inactive: -0.045 | inactive: 0.028 | inactive: 0.109 | inactive: 0.037 | inactive: 0.129 | inactive: -0.067 |
| TES (UniProt Q9UGI8) | inactive: -0.013 | inactive: -0.053 | inactive: 0.019 | inactive: 0.057 | inactive: 0.016 | inactive: -0.065 | inactive: -0.024 | inactive: 0.022 | inactive: -0.078 | inactive: -0.036 |
| TBPL1 (UniProt P62380) | inactive: -0.094 | inactive: -0.193 | inactive: 0.02 | inactive: -0.055 | inactive: -0.055 | inactive: -0.031 | inactive: 0.056 | inactive: 0.076 | inactive: -0.105 | inactive: 0.041 |
| TBC1D23 (UniProt Q9NUY8) | inactive: -0.228 | inactive: -0.261 | inactive: 0.008 | inactive: 0.049 | – | inactive: -0.069 | inactive: 0.025 | – | inactive: 0.043 | active: -0.651 |
| TET1 (UniProt Q8NFU7) | inactive: 0.024 | inactive: -0.437 | inactive: -0.489 | inactive: -0.069 | inactive: -0.195 | inactive: -0.031 | inactive: 0.019 | inactive: 0.071 | inactive: -0.112 | inactive: 0.171 |
| TKT, A0A0B4J1R6 | inactive: 0.256 | inactive: -0.108 | inactive: -0.183 | inactive: -0.308 | inactive: -0.02 | – | inactive: -0.172 | inactive: -0.067 | inactive: -0.017 | – |
| TLCD4 (UniProt Q96MV1) | inactive: 0.054 | inactive: 0.062 | inactive: -0.002 | inactive: 0.061 | inactive: 0.07 | inactive: -0.029 | inactive: 0.081 | inactive: 0.012 | inactive: -0.043 | inactive: 0.123 |
| THOC1 (UniProt Q96FV9) | inactive: -0.034 | inactive: -0.017 | inactive: 0.004 | inactive: -0.008 | inactive: 0.017 | inactive: -0.046 | inactive: -0.015 | inactive: 0.043 | inactive: 0.119 | inactive: -0.039 |
| TBC1D22B (UniProt Q9NU19) | inactive: -0.1 | inactive: -0.3 | inactive: 0.047 | inactive: 0.078 | inactive: -0.031 | inactive: -0.036 | inactive: 0.034 | inactive: 0.026 | inactive: 0.004 | inactive: -0.113 |
| THOC7 (UniProt Q6I9Y2) | inactive: 0.071 | inactive: -0.032 | inactive: 0.029 | inactive: 0.005 | inactive: -0.007 | inactive: -0.007 | inactive: -0.119 | inactive: 0.002 | inactive: 0.007 | inactive: 0.048 |
| TERF2IP (UniProt Q9NYB0) | inactive: -0.038 | inactive: -0.205 | inactive: 0.001 | inactive: 0.081 | – | inactive: 0.01 | inactive: 0.045 | – | inactive: 0.026 | inactive: -0.039 |
| TJAP1 (UniProt Q5JTD0) | inactive: 0.118 | inactive: -0.035 | inactive: 0.05 | inactive: -0.01 | inactive: -0.013 | inactive: 0.134 | inactive: -0.051 | inactive: -0.027 | inactive: -0.101 | inactive: -0.108 |
| TBL1XR1 (UniProt Q9BZK7) | inactive: 0.075 | inactive: 0.01 | inactive: 0.024 | inactive: 0.044 | inactive: 0.019 | inactive: -0.066 | inactive: -0.022 | inactive: 0.035 | inactive: -0.009 | inactive: -0.014 |
| TIMM50 isoform 2 (UniProt Q3ZCQ8) | inactive: 0.029 | inactive: -0.158 | inactive: 0.021 | inactive: 0.035 | inactive: -0.004 | inactive: -0.008 | inactive: 0.009 | inactive: 0.02 | inactive: -0.031 | inactive: 0.121 |
| TBP (UniProt P20226) | inactive: 0.087 | inactive: 0.073 | inactive: 0.095 | inactive: -0.332 | – | – | inactive: -0.227 | – | inactive: 0.001 | – |
| TCAF2 (UniProt A6NFQ2) | inactive: 0.275 | – | inactive: -0.287 | inactive: -0.215 | – | – | – | – | – | – |
| TFB2M (UniProt Q9H5Q4) | inactive: -0.096 | active: -0.326 | inactive: 0.049 | inactive: 0.071 | – | inactive: -0.002 | inactive: 0.031 | – | inactive: -0.049 | inactive: -0.179 |
| TBC1D5 isoform 2 (UniProt Q92609) | active: -0.397 | active: -0.854 | inactive: 0.113 | inactive: 0.069 | – | inactive: -0.016 | inactive: 0.039 | – | inactive: 0.021 | active: -0.375 |
| TCIRG1 (UniProt Q13488) | inactive: -0.094 | – | inactive: 0.011 | inactive: 0.138 | inactive: -0.009 | inactive: 0.09 | – | inactive: -0.143 | inactive: 0.431 | inactive: 0.091 |
| TIMM10 (UniProt P62072) | inactive: 0.029 | inactive: 0.052 | inactive: -0.023 | inactive: 0.032 | – | inactive: 0.006 | inactive: -0.046 | – | inactive: -0.074 | inactive: 0.14 |
| TGFBR1 isoform 2 (UniProt P36897) | inactive: -0.041 | inactive: -0.179 | inactive: -0.022 | inactive: 0.033 | – | inactive: -0.023 | inactive: -0.028 | – | inactive: 0.021 | inactive: 0.076 |
| TFAP4 (UniProt Q01664) | inactive: 0.018 | inactive: -0.21 | inactive: 0.119 | – | – | inactive: -0.072 | inactive: 0.03 | inactive: 0.004 | – | inactive: -0.072 |
| TBC1D9B (UniProt Q66K14) | active: -0.58 | active: -0.348 | inactive: 0.053 | inactive: -0.073 | – | inactive: -0.141 | inactive: 0.021 | – | inactive: 0.018 | active: -0.328 |

In a second layout: results already given
Target,log2 fold change [1],log2 fold change (volasertib),log2 fold change [2],log2 fold change (epoxomicin),log2 fold change [3],log2 fold change [4],log2 fold change [5],log2 fold change (rosiglitazone),log2 fold change [6],log2 fold change [7]
TLCD4 (UniProt Q96MV1),inactive: 0.054,inactive: 0.062,inactive: -0.002,inactive: 0.061,inactive: 0.07,inactive: -0.029,inactive: 0.081,inactive: 0.012,inactive: -0.043,inactive: 0.123
THOC1 (UniProt Q96FV9),inactive: -0.034,inactive: -0.017,inactive: 0.004,inactive: -0.008,inactive: 0.017,inactive: -0.046,inactive: -0.015,inactive: 0.043,inactive: 0.119,inactive: -0.039
TBC1D22B (UniProt Q9NU19),inactive: -0.1,inactive: -0.3,inactive: 0.047,inactive: 0.078,inactive: -0.031,inactive: -0.036,inactive: 0.034,inactive: 0.026,inactive: 0.004,inactive: -0.113
THOC7 (UniProt Q6I9Y2),inactive: 0.071,inactive: -0.032,inactive: 0.029,inactive: 0.005,inactive: -0.007,inactive: -0.007,inactive: -0.119,inactive: 0.002,inactive: 0.007,inactive: 0.048
